The source of these data is PubChem BioAssay AID330 (DTP/NCI, 2004).

Each structure is given as a SMILES string. The list is a part of this screen's results and no random one: it gathers tests that were run many times, whatever their T/C, doses with no T/C, and many T/C values between a quarter and a half above the control. Further doses and runs are listed elsewhere. T/C: endpoint of the treated group in % of that of the vehicle group. Some doses have a count of surviving animals in place of a T/C: the source holds a T/C of zero for them, seemingly a mark for toxic or unscored doses. Some survivor counts are full or nearly so, which does not show that the dose was tolerated: survival well below the control is almost never listed, so the zero probably covers shortened survival too. Survivors were counted at the toxicity check, usually on the fifth day, unless a day is given; later deaths do not show. Schedules are NCI's codes, read here as Q, the interval in days (D) or hours (H), X, the number of doses. Some entries were tested several times; the values are given in rising order. Marks such as (2×) count equal records among those shown. For survival time, this PubChem deposit counts one and a half times the control or more as active, and values a quarter to a half above the control carry no call in these data; other NCI protocols may use other cut-offs. Some T/C values carry the count of animals alive at the toxicity check (mostly the fifth day); without a count, all were alive then.

This test relates to P388 leukemia ip, CD2F1 mice, survival T/C. As to the kind of experiment: NCI In Vivo Anticancer Drug Screen. Data for tumor model P388 Leukemia (intraperitoneal) in CD2F1 (CDF1) mice. To be noted: T/C endpoint: median survival time, vehicle: Klucel (hydroxypropylcellulose) (HPC), higher T/C = longer survival.
The mark [1] stands for this setting: dose: 200.0 mg/kg/injection, schedule: Q01DX001 (ip).
Where [2] appears, read: dose: 200.0 mg/kg/injection, schedule: Q04DX003 (ip).
[3] abbreviates: dose: 400.0 mg/kg/injection, schedule: Q01DX001 (ip).
[4] abbreviates: dose: 400.0 mg/kg/injection, schedule: Q04DX002 (ip).
The mark [5] stands for this setting: dose: 400.0 mg/kg/injection, schedule: Q04DX003 (ip).

As for `CC(=O)NNC(=O)c1ccccn1`, the survivor count runs as follows: (dose: 100.0 mg/kg/injection, schedule: Q01DX009 (ip)) 3 of 3; (dose: 100.0 mg/kg/injection, schedule: Q04DX002 (ip)) 3 of 3 and 6 of 6; under setting [1], 6 of 6; (dose: 200.0 mg/kg/injection, schedule: Q01DX005 (ip)) 1 of 6, 1 of 3, 2 of 6, 3 of 6, 2 of 3, 4 of 6, 5 of 6; (dose: 200.0 mg/kg/injection, schedule: Q01DX009 (ip)) 0 of 3, 1 of 3, 3 of 6, 2 of 3, 4 of 6, 5 of 6, 3 of 3, 6 of 6; (dose: 200.0 mg/kg/injection, schedule: Q04DX002 (ip)) 3 of 3 and 6 of 6. Further, the survivor count by setting is: under setting [2], 6 of 6; under setting [3], 0 of 3, 0 of 6, 1 of 6, 1 of 3, 2 of 6, 3 of 6, 6 of 6; under setting [4], 0 of 3 (2×), 0 of 6 (2×), 1 of 6, 1 of 3, 2 of 6 (2×), 3 of 6, 2 of 3, 4 of 6, 6 of 6; under setting [5], 0 of 3, 0 of 6, 1 of 6, 1 of 3, 2 of 6, 3 of 6, 2 of 3, 4 of 6. The T/C was 90 (2×), 93 (2×), 95, 96, 97, 99 (2×), 100 (4×), 101, 102 (3×), 103, 104 (2×), 105 (2×), 106 (2×), 108, 109 (2×), 110, 115, 121, 123, 128 % of control (dose: 100.0 mg/kg/injection, schedule: Q04DX002 (ip), evaluated on day 30); 102, 103, 104 % of control [2 of 3 alive] (dose: 100.0 mg/kg/injection, schedule: Q04DX002 (ip), evaluated on day 35); 90, 91, 92, 93, 95 (2×), 97 (3×), 98, 99, 100 (5×), 101 (2×), 102, 103, 104 (2×), 105 (3×), 106, 108 (4×), 109, 110, 111, 116 % of control (dose: 100.0 mg/kg/injection, schedule: Q04DX003 (ip)); 91, 94, 95 [5 of 6 alive], 96, 97, 98 [5 of 6 alive], 99 (4×), 100 (5×), 102 (3×), 103, 104 (2×), 105 (3×), 106, 108, 109, 113, 118, 119, 124 % of control under setting [1]; 90 [5 of 6 alive], 92 [5 of 6 alive], 98, 99, 99 [5 of 6 alive], 103, 103 [5 of 6 alive], 104, 105, 106 [5 of 6 alive], 108, 109, 109 [2 of 3 alive], 110 (2×), 112, 115, 116, 128 [4 of 6 alive], 129 % of control (dose: 200.0 mg/kg/injection, schedule: Q01DX005 (ip), evaluated on day 30); 129 % of control (dose: 200.0 mg/kg/injection, schedule: Q01DX005 (ip), evaluated on day 35). For the same compound, the T/C (dose: 200.0 mg/kg/injection, schedule: Q01DX009 (ip), evaluated on day 30) is 86, 87, 90 [2 of 3 alive], 93, 94, 96, 96 [2 of 3 alive], 97 [5 of 6 alive], 98 [5 of 6 alive], 99, 100, 102 (2×), 108 [5 of 6 alive], 109, 110 [2 of 3 alive], 111, 114, 122, 132 % of control; the T/C (dose: 200.0 mg/kg/injection, schedule: Q01DX009 (ip), evaluated on day 35) was 87 and 95 % of control; the T/C (dose: 200.0 mg/kg/injection, schedule: Q04DX002 (ip), evaluated on day 30) is 94, 95, 98 (2×), 98 [5 of 6 alive], 99 (2×), 100 (4×), 101 (2×), 102, 102 [5 of 6 alive], 103 (3×), 104 (3×), 105, 106 (3×), 107 (2×), 108 (3×), 109 (2×), 114 % of control [2 of 3 alive]; the T/C (dose: 200.0 mg/kg/injection, schedule: Q04DX002 (ip), evaluated on day 35) was 104 (2×) and 105 % of control; the T/C under setting [2] is 88 [2 of 3 alive], 89 [5 of 6 alive], 90, 91, 93, 94, 95 (3×), 96, 97 (2×), 99 (3×), 100 (4×), 102, 103, 104 (3×), 105, 106 (2×), 107 (4×), 111, 114 % of control; the T/C under setting [3] was 99 [2 of 3 alive], 100, 102 [2 of 3 alive], 104 [4 of 6 alive], 109 [2 of 3 alive], 109 [5 of 6 alive], 114 [2 of 3 alive], 115 [2 of 3 alive], 139 % of control [2 of 3 alive]. The T/C was 88 [4 of 6 alive], 99 [4 of 6 alive], 100, 108 [2 of 3 alive], 109, 109 [2 of 3 alive], 109 [4 of 6 alive], 111 % of control under setting [4] and 86 [2 of 3 alive], 89 [4 of 6 alive], 91 [5 of 6 alive], 95 % of control [2 of 3 alive] under setting [5].
